These are yes or no findings as the source states them, for the method shown. Binding seen in cells or lysates may run through a third protein. Some binding calls cover weakened binding; strength is not graded here.
Target: β2 adrenergic receptor (rat (endogenous in primary FLSs)) (UniProt P10608)
Experiment: co-IP; lysates (NP40 immunoprecipitation buffer) of primary rat FLSs; anti-β2AR antibody on Protein A/G agarose beads overnight at 4 °C; Gαs, Gαi and β2AR detected by Western blot; cells were normal or CIA FLSs, or normal FLSs treated with ISO, ISO + CP-25, or βarr2 siRNA + ISO

Chains of the proteins cited; added tags and fusions are not shown.
UniProt P10608: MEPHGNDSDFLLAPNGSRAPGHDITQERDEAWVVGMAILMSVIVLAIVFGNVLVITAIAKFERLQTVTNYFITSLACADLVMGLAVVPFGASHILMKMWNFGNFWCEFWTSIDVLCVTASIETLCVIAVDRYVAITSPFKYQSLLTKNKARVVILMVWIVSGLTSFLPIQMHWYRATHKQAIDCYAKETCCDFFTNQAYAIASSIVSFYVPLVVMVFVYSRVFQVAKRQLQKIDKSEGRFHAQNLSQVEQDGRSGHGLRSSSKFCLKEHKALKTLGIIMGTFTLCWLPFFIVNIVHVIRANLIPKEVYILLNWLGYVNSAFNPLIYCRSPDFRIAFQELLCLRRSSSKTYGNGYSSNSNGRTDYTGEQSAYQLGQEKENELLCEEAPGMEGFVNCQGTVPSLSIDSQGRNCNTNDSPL
UniProt P63095: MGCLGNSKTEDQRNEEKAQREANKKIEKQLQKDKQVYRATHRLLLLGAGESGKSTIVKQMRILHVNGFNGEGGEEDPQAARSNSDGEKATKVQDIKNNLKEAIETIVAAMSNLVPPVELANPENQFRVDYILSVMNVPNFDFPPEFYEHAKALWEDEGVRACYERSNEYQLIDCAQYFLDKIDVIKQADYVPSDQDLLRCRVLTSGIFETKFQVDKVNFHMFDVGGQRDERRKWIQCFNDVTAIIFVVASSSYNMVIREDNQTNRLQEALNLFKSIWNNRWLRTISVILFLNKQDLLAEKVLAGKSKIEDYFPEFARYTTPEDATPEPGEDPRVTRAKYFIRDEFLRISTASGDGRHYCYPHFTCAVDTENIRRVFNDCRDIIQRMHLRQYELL

- binding: binds
Substance: Gαs (from UniProt P63095 1-394)

From article PMC10688045
